In US12138034B2, “Gastroretentive articles for alcohol sensing” (priority 2020, dated 2024):
For at least one compound, name, drawing or mass did not settle the structure.

Columns and labels:
[1] = Stability of drug-polymer pills in SGF (polymer protection metric); format: physicochemical; details: drug-PCL pill; 3 days in SGF, 37° C., 200 rpm; n=3
Method: Drug-polymer pills were incubated in a shaking incubator at 37° C. and 200 rpm in 50 mL of SGF for 3 days with fluid replaced every day. Then, drug-polymer pills were transferred to acetonitrile for extraction of drug from the polymer pill. The average of extracted amount (n=3) was normalized to the average of extracted drug from drug-polymer pills placed directly in acetonitrile (n=3) to yield the polymer protection metric plotted. PCL protects 89.75% of sofosbuvir, 82.39% of daclatasvir, and 87.11% of ribavirin. Silicone protected 98.96% of ledipasvir.

[2] = In vitro drug release from individual drug-polymer pills; format: physicochemical; details: 37° C., 200 rpm, 50 mL fluid; varying PCL molecular weight, coating, drug loading, SA/V ratio, excipients
Source text: FIGS. 11A-11E show fabrication and in vitro release of direct-acting antivirals (DAAs) from individual drug-polymer pills, according to one set of embodiments. FIG. 11A. Drug-polymer pills are made by mixing drug with either silicone or poly(ε-caprolactone) (PCL) and then casting into a Petri dish or a three-dimensional (3-D) printed mold. Drug-silicone pills are extracted using a biopsy punch, and drug-PCL pills are extracted with a razor blade. Pills are then spray-coated with a pan coater. A cross-sectional image of a PCL-coated drug-PCL pill is shown. FIG. 11B. In vitro release of sofosbuvir from a drug pill in water with varying molecular weight of PCL. FIG. 11C. […]
LA-DAAS prototyping and in vitro drug release. LA-DAAS were assembled and in vitro drug release was evaluated by High-Performance Liquid Chromatography (HPLC) as previously described, with modifications including novel formulations for DAAs (FIGS. 14A-14B).(17) The following drugs were acquired: sofosbuvir (Hefei Hirisun Pharmatech Co., Ltd, Hefei, China), daclatasvir and ledipasvir (Hangzhou APIChem Technology Co, Ltd., Hangzhou, Zhejiang, China), and ribavirin (ChemShuttle, Hayward, CA). […] Drug loading percentages were determined relative to the final polymer mixture weight: sofosbuvir (50%), daclastasvir (40%), ledipasvir (40%), and ribavirin (40%). […]

COC(=O)N[C@H](C(=O)N1CCC[C@H]1c1nc(-c2ccc(-c3ccc(-c4c[nH]c([C@@H]5CCCN5C(=O)[C@@H](NC(=O)OC)C(C)C)n4)cc3)cc2)c[nH]1)C(C)C [daclatasvir]
polymer protection (drug extracted after SGF, normalized to pills placed directly in acetonitrile) [1]: 82.39%
in vitro release rate from drug-polymer pills (trend, words) [2]: linear cumulative release versus time profile
